According to patent US12364681B2, “Combined MAPK and NAMPT inhibition for treatment of neuron degeneration” (The Johns Hopkins University, priority 2021, dated 2025):
At least one structure is not confirmed: it was looked up by name or label, or the drawing left a doubt.

Legend:
[1] = system: JNK signaling (p-JUN) in RGCs; assay: Impact acceleration (IA) TBI model: p-JUN (+) RGCs in retinal flat mounts; type: in vivo, mice; conditions: intraperitoneal 60 mg/kg before and after IA injury; vs vehicle; p-JUN measured at day 1 post injury
[2] = target: T1, LZK (Homo sapiens, UniProt O43283); conditions: published profiling data; cited from earlier work
T1 sequence (O43283 1-966): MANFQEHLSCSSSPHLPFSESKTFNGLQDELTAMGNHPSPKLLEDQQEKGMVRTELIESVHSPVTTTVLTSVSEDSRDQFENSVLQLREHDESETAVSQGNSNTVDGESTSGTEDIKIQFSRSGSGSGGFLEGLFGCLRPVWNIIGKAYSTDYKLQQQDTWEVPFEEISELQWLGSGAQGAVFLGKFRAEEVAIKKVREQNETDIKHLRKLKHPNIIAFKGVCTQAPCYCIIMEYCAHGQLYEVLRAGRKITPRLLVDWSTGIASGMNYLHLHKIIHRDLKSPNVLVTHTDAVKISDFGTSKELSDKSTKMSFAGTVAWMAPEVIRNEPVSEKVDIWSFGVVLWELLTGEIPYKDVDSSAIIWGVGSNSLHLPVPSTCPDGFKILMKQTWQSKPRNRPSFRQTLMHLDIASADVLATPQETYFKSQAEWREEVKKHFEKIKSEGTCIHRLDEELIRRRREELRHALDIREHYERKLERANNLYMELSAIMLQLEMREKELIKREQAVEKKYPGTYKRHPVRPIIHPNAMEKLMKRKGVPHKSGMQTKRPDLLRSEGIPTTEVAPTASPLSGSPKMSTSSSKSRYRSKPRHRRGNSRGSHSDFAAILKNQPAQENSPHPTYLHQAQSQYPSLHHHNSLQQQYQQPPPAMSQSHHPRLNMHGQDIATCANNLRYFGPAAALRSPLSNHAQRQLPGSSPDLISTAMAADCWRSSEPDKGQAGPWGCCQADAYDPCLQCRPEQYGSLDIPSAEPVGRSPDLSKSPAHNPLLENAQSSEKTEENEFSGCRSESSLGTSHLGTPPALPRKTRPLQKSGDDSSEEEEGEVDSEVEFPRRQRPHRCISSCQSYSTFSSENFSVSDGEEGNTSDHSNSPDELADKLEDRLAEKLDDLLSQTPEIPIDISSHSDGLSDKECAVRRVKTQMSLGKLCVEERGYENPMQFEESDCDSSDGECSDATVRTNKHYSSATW

[3] = target: T2, MKK7 (Homo sapiens, UniProt O14733); conditions: published profiling data; cited from earlier work
T2 sequence (O14733 1-419): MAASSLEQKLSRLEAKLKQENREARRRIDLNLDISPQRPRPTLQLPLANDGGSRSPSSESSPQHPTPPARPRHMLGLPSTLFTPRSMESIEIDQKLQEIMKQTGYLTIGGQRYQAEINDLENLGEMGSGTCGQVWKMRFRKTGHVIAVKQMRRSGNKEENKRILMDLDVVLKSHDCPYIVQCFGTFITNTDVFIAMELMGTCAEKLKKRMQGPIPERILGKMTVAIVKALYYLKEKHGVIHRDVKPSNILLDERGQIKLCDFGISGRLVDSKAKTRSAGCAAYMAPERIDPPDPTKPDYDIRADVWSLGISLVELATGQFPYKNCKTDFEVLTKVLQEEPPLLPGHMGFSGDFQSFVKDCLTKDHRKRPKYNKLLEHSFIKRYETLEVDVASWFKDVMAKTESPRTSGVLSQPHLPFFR

[4] = system: induced pluripotent stem cell (iPSC)-derived human RGCs; conditions: cited from earlier work

In the case of CCN(CC)CCNC(=O)c1c(C)[nH]c(/C=C2\C(=O)Nc3ccc(F)cc32)c1C [sunitinib], the “number of p-JUN positive RGCs” value [1] is listed as “significant decrease”, the “activity against LZK” value [2] is listed as “activity” and the “activity against MKK7” value [3] is listed as “not against”. The “survival of iPSC-derived human RGCs” value [4] was “increased the survival”.
